# In all, about 320,000 compounds went through this assay and about 22,000 (6.9%) were called active. Inconclusive means that the source gave no clear call. Such entries were picked first, then a sample of the others. The call rests on the fitted dose curve; in most records, active means well fitted inhibition curve with a large enough effect; inconclusive means small, poorly fitted or top-dose-only effect, or another doubt; inactive means no such curve, though single readings can be large or run the other way. A potency beside an inconclusive call is a rough fit, not a confirmed value.
# Assay: Primary qHTS for delayed death inhibitors of the malarial parasite plastid, 96 hour incubation
# Conditions: P. falciparum luciferase reporter growth; series mostly up to 28.7 µM
# In short: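 P. falciparum expressing integrated firefly luciferase, in erythrocytes at 2% hematocrit, 0.05% parasitemia, incubated with compounds 96 h at 37 C, 5% CO2. Growth inhibition read as loss of luminescence; two-generation exposure targets delayed-death apicoplast inhibitors.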
# On the % scale 0 is the no-effect control and ±100 the full control effect; potency means the concentration at half of the fitted maximal effect.
Structure (SMILES),Potency,"activity change, negative = inhibition"
Cc1ccc2nc(Cl)c(/C=N/n3c(C)nnc3C)cc2c1,inactive,–
CC(C)(C#CC(=O)O)OOC(c1ccccc1)(c1ccccc1)c1ccccc1,active: 8.28 µM,–
C=CCNC(=O)C1CC(=O)N(c2ccc(OCc3ccccc3Cl)cc2)C1 (stereo unspecified),"inconclusive: 3.7 µM [inhibitor, single point]",–
CCc1cccc(NC(=O)c2cc(S(=O)(=O)N(C)C)ccc2N2CCCC2)c1,"inconclusive: 5.86 µM [inhibitor, partial curve, poor fit]",–
COc1ccccc1NC(=O)Nc1nc(CC(=O)NCc2ccc(F)cc2)cs1,"inconclusive: 3.7 µM [inhibitor, full curve]",–
Fc1ccc(-n2cc(-c3ccccc3)[n+]3c2SCC3)cc1,"inconclusive: 3.29 µM [inhibitor, full curve, poor fit]",–
O=C(c1ccc(Cn2cc([N+](=O)[O-])cn2)o1)N1N=C(C(F)F)CC1(O)C(F)F (stereo unspecified),"inconclusive: 6.57 µM [inhibitor, partial curve, poor fit]",–
O=C(NNC(=S)NC1CCCCC1)c1ccc2c(c1)OCO2,inactive,–
CCC(C)NC(=O)C1CCN(S(=O)(=O)c2ccc(Br)s2)CC1 (stereo unspecified),active: 10.4 µM,–
Cc1ccc(NS(=O)(=O)c2cc(NC(=O)c3cc(=O)[nH]c(=O)[nH]3)ccc2Cl)c(C)c1,"inconclusive: 11.7 µM [inhibitor, partial curve, poor fit]",–
CC(=O)Nc1ccc(OCCOc2ccc(/C=C3\C(=N)N4N=C(C(C)C)SC4=NC3=O)cc2)cc1,"inconclusive: 2.08 µM [inhibitor, partial curve, poor fit]",–
C/C(=N\Nc1cccc(C(=O)O)c1)c1ccc2c(c1)Nc1ccccc1S2,"inconclusive: 18.5 µM [inhibitor, single point]",–
O=C(C1CCN(S(=O)(=O)c2cnc[nH]2)CC1)N1CCn2c1nc1ccccc12,inactive,–
O=C(CS(=O)(=O)c1cn(Cc2cccc(F)c2)c2ccccc12)N1CCCCC1,inactive,–
O=C(Nc1nc2ccc(F)cc2s1)C1=COCCO1,inactive,–
CC1CCCN(c2ccc(F)cc2N)C1 (stereo unspecified),"inconclusive: 9.28 µM [inhibitor, partial curve, poor fit]",–
CC(C)NC(=O)c1ccc(-c2cccc(C(F)(F)F)c2)o1,"inconclusive: 4.65 µM [inhibitor, partial curve]",–
Cc1ccccc1OCCC(=O)Nc1ccccc1C(=O)NC1CC1,inactive,–
CC1CCCCC1NC(=O)CCC(=O)N1CCOc2ccc(Cl)cc21 (stereo unspecified),"inconclusive: 18.5 µM [inhibitor, single point]",–
Cc1cc(=O)[nH]c(SCC(=O)NCCc2ccccc2)n1,"inconclusive: 0.0586 µM [inhibitor, full curve, poor fit]",–
CCCN1CCN(C(=O)Cn2cnc3ccc(S(=O)(=O)N4CCC(C)CC4)cc3c2=O)CC1,"inconclusive: 2.33 µM [inhibitor, full curve, poor fit]",–
Cc1[nH]c(C)c(S(=O)(=O)N2CCN(c3ccccc3F)CC2)c1C(=O)N1CCCCC1,inactive,–

Structure (SMILES),Potency,"activity change, negative = inhibition"
Cc1ccc(C(=O)Nc2cccc(C(=O)N/N=C/c3ccccc3F)c2)cc1,"inconclusive: 3.7 µM [inhibitor, partial curve, poor fit]",–
CS(=O)(=O)N(CC(=O)N1CCN(Cc2ccc3c(c2)OCO3)CC1)Cc1ccc(Cl)cc1,active: 1.85 µM,–
O=C(C1=C(O)C(=O)N(CCN2CCOCC2)C1c1cccc(F)c1)c1cc2ccccc2o1 (stereo unspecified),"inconclusive: 10.4 µM [inhibitor, partial curve, poor fit]",–
CCN(CC)C(=O)c1ccc(-c2nnc(Nc3ccc(C(=O)N(C)C)cc3)c3ccccc23)cc1,inactive,–
COc1cccc2sc(N(CCN(C)C)C(=O)c3ccc4c(c3)CCCC4)nc12,"inconclusive: 0.928 µM [inhibitor, full curve]",–
COc1ccc(CN2C(=O)C(C)Oc3ccccc32)cc1 (stereo unspecified),"inconclusive: 18.5 µM [inhibitor, single point]",–
COc1ccc(C(=O)Cn2c(NCCO)nc3ccccc32)cc1,"inconclusive: 5.86 µM [inhibitor, partial curve, poor fit]",–
CCOc1cc(C(C(=O)NCC2CCCO2)N(C(=O)Cn2nnc3ccccc32)c2ccc(OC)c(OC)c2)ccc1O (stereo unspecified),"inconclusive: 0.0147 µM [inhibitor, full curve]",–
CC1CCCC(C)N1C(=O)CSc1nc(N)c(-c2ccccc2)c(=O)[nH]1 (stereo unspecified),"inconclusive: 13.1 µM [inhibitor, partial curve, poor fit]",–
O=C(N/N=C/c1cccnc1)NC12CC3CC(CC(C3)C1)C2,"inconclusive: 13.1 µM [inhibitor, single point]",–
Cc1cccc(NC(=S)Nc2ccc(Cl)c(Cl)c2)c1,"inconclusive: 18.5 µM [inhibitor, single point]",–
Cc1cc(C)c(S(=O)(=O)N2CCC(C(=O)NCc3ccc(Cl)cc3Cl)CC2)c(C)c1,inactive,–
Cn1c(-c2ccccc2O)cc2ccccc21,active: 5.22 µM,–
COc1ccc(/C=C/C(=O)c2cc(F)ccc2OC(=O)c2ccccc2OC)cc1OC,"inconclusive: 18.5 µM [inhibitor, single point]",–
Cc1ccc2c(CN(C)Cc3cccc(F)c3)cc(=O)oc2c1,inactive,–
COc1cccc(NC(=O)c2ccccc2-c2nc(-c3ccccc3)no2)c1,inactive,–
CCCCn1c(N)c(N(CC)C(=O)CSc2nnnn2-c2cc(C)ccc2C)c(=O)[nH]c1=O,"inconclusive: 13.1 µM [inhibitor, partial curve, poor fit]",–
Cc1ccc(-n2c(SCC(=O)N3CCOCC3)nnc2-c2cccnc2)cc1C,"inconclusive: 18.5 µM [inhibitor, single point]",–
CCc1cccc(NS(=O)(=O)c2c(C)nc3sc(CC)nn3c2=O)c1,"inconclusive: 11.7 µM [inhibitor, partial curve, poor fit]",–
COCc1cc(=O)[nH]c(/N=C(\N)Nc2c(F)cccc2F)n1,inactive,–
COc1ccc([N+](=O)[O-])cc1N(CC(=O)NCc1ccco1)S(C)(=O)=O,"inconclusive: 11.7 µM [inhibitor, partial curve, poor fit]",–
CCOc1ccc(-n2c(SCc3cc(=O)oc4cc(C)c(C(C)C)cc34)nnc2-c2cccnc2)cc1,"inconclusive: 9.28 µM [inhibitor, partial curve, poor fit]",–

Structure (SMILES),Potency,"activity change, negative = inhibition"
Cc1ccc(N/N=C(\C#N)C(N)=S)cc1C,–,inactive: -19.3% [at 5.75 µM]
COc1ccc(C2=NS(=O)(=O)N(C)C(C(=O)N3CCCCC3)=C2)cc1OC,"inconclusive: 0.185 µM [inhibitor, full curve, poor fit]",–
Cc1ccc(S(=O)(=O)N2CCN(C(=O)c3cc4c(s3)CCCC4)CC2)cc1,"inconclusive: 3.29 µM [inhibitor, partial curve]",–
COc1ccc(N(Cc2ccccc2)S(=O)(=O)c2cccc(C(=O)Nc3ncccc3C)c2)cc1,"inconclusive: 0.37 µM [inhibitor, partial curve, poor fit]",–
CCN(CC)C(=O)CSc1nc2ccccc2c(=O)n1OC,active: 13.1 µM,–
CCn1cc(/C=C(\NC(=O)c2ccc(C)cc2)C(=O)NCCCN2CCOCC2)c2ccccc21,"inconclusive: 3.7 µM [inhibitor, full curve, poor fit]",–
Cc1ccc(CNC(=O)C2CC2c2ccccc2)cc1 (stereo unspecified),"inconclusive: 7.38 µM [inhibitor, single point]",–
Cc1ccc(C)c(NC(=S)N/N=C2\CCc3ccccc32)c1,active: 5.22 µM,–
CCOC(=O)c1cccc(NC(=O)CSc2nnc(C3CCCCC3)n2C)c1,"inconclusive: 18.5 µM [inhibitor, single point]",–
COc1ccc(C/C(N)=N/OC(=O)Cc2ccccc2)cc1,"inconclusive: 0.0029 µM [inhibitor, full curve, poor fit]",–
COc1ccccc1C(=O)N/C(=C\c1ccccc1)C(=O)NC(Cc1ccccc1)C(=O)O (stereo unspecified),inactive,–
Fc1cccc(CNc2ncnc3cc(Cl)ccc23)c1F,"inconclusive: 16.5 µM [inhibitor, single point]",–
O=C(Nc1nc2n(n1)C(c1ccc(F)cc1)CC(c1ccccc1)N2)c1ccco1 (stereo unspecified),"inconclusive: 9.28 µM [inhibitor, partial curve]",–
Fc1c(F)c(F)c(N/N=C/c2c[nH]c3ccccc23)c(F)c1F,"inconclusive: 10.4 µM [inhibitor, single point]",–
CC(=O)c1ccc(N2CCN(S(=O)(=O)c3ccc4c(c3)CC(C)N4C(C)=O)CC2)cc1 (stereo unspecified),"inconclusive: 10.4 µM [inhibitor, single point]",–
Cc1ccc2c(C(=O)CN3CCCCC3CCO)c(C)[nH]c2c1 (stereo unspecified),"inconclusive: 18.5 µM [inhibitor, single point]",–
Cc1ccc2nc(N3C(=O)C(O)=C(C(=O)c4ccco4)C3c3cccc(O)c3)sc2c1 (stereo unspecified),active: 9.28 µM,–
CN(C)CCCN(C(=O)c1ccc(Br)s1)c1nc2cc3c(cc2s1)OCO3,"inconclusive: 5.86 µM [inhibitor, partial curve, poor fit]",–
Cn1nc(C(=O)NCCCN2CCCCC2)c2c1-c1ccccc1S(=O)(=O)C2,inactive,–
CCOC(=O)C1CCN(C(=O)c2cc(S(=O)(=O)N3CCc4ccccc43)ccc2OC)CC1,"inconclusive: 11.7 µM [inhibitor, single point]",–
COc1ccc(NC(=O)N2CCCc3ccccc32)c(OC)c1,inactive,–
CCCn1c(CCNc2nc(-c3ccc(OC)cc3)cs2)nc2ccccc21,active: 11.7 µM,–

# In the list so far, 3 contain a thiophene ring, fused or not:
Structure (SMILES),Potency,"activity change, negative = inhibition"
CCC(C)NC(=O)C1CCN(S(=O)(=O)c2ccc(Br)s2)CC1 (stereo unspecified),active: 10.4 µM,–
Cc1ccc(S(=O)(=O)N2CCN(C(=O)c3cc4c(s3)CCCC4)CC2)cc1,"inconclusive: 3.29 µM [inhibitor, partial curve]",–
CN(C)CCCN(C(=O)c1ccc(Br)s1)c1nc2cc3c(cc2s1)OCO3,"inconclusive: 5.86 µM [inhibitor, partial curve, poor fit]",–
